Laboratory results from paper PMC3287977.
No constants are given. Whether binding was seen depends on the method and setting. For some of these results: Binding seen in cells or lysates may run through a third protein. For some of these results: Binding calls can cover weak binding; strength is not graded here. Where a sequence is shown, tags or fusion partners need not be part of it.

Experiments:
[1] = biological target: T1, GST-tagged A. fulgidus HypA (Archaeoglobus fulgidus) (UniProt O28904); experiment: pull-down; GST-AfHypA as bait on glutathione resin; lysate of His-SUMO-AfHypB (or variant) treated with SUMO protease, mixed with GST-AfHypA lysate; washed with PBS; eluted with 20 mM Tris pH 8.0, 0.1 M NaCl, 20 mM GSH; SDS-PAGE, Coomassie
T1 sequence: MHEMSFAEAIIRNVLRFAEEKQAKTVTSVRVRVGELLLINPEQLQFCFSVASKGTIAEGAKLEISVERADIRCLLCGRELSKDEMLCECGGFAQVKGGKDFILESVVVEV

[2] = biological target: T2, A. fulgidus HypA, tag-free (Archaeoglobus fulgidus) (UniProt O28904); experiment: condition: only AfHypB preloaded with GMPPNP and Ni (dimeric form); SEC-MALS; equimolar AfHypA and AfHypB preloaded with GMPPNP and Ni (dimeric form); Superdex-75 HR10/30, 50 mM Tris pH 7.5, 0.2 M NaCl, 1 mM TCEP, room temperature; peaks checked by SDS-PAGE; both purified
T2 sequence: T1 sequence

Substance | binding [1] | binding [2]
A. fulgidus HypB E5A (Archaeoglobus fulgidus) | binds | –
A. fulgidus HypB, tag-free (Archaeoglobus fulgidus) | binds | no binding
C-terminal truncated A. fulgidus HypB variant (ΔC) (Archaeoglobus fulgidus) (domain or fragment) | binds | –
A. fulgidus HypB Y4A (Archaeoglobus fulgidus) | no binding | –
N-terminal truncated A. fulgidus HypB variant (ΔN) (Archaeoglobus fulgidus) (domain or fragment) | no binding | –
A. fulgidus HypB clustered-charge-to-alanine variant C12 (Archaeoglobus fulgidus) | binds | –
A. fulgidus HypB clustered-charge-to-alanine variant C10 (Archaeoglobus fulgidus) | binds | –
A. fulgidus HypB L6A (Archaeoglobus fulgidus) | no binding | –
A. fulgidus HypB clustered-charge-to-alanine variant C11 (Archaeoglobus fulgidus) | binds | –
